Measurements: US20050063948A1
Results are given in words; binding and its absence hold for the method and conditions named. Some results given as binding are weak or reduced against the parent protein; the word gives no strength. Sequences can lack the tags named with a protein.

The chains behind the UniProt entries cited, without tags or fusion partners. Where a name states a change or a piece, a line headed by the entry shows the natural chain unless it says otherwise.
UniProt P06756: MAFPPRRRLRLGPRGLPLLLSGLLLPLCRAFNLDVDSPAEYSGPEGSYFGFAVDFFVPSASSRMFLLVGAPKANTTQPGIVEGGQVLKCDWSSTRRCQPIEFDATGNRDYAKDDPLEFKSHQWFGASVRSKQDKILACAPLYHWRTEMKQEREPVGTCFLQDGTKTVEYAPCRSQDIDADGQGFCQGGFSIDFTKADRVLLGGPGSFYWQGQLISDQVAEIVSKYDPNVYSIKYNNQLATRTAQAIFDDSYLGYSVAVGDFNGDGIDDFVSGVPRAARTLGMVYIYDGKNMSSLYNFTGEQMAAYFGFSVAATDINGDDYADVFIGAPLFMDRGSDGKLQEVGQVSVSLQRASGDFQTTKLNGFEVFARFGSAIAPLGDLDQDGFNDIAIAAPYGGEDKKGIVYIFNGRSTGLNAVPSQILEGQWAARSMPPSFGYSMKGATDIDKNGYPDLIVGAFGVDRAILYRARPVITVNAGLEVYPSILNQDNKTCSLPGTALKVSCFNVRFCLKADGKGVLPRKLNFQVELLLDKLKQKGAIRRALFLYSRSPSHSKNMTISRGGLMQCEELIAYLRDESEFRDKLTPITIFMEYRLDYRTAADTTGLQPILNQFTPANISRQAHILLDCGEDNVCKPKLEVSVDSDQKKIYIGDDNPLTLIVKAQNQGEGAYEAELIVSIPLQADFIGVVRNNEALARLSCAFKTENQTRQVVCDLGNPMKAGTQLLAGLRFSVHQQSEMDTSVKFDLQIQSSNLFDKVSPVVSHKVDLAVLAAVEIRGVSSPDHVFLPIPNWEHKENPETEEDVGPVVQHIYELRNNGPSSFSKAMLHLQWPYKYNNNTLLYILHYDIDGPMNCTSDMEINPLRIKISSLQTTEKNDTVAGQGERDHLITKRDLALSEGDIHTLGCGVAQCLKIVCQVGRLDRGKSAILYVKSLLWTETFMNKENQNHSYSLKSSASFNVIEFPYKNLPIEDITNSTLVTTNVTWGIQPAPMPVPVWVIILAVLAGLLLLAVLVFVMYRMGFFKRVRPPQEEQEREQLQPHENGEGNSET
UniProt P05106: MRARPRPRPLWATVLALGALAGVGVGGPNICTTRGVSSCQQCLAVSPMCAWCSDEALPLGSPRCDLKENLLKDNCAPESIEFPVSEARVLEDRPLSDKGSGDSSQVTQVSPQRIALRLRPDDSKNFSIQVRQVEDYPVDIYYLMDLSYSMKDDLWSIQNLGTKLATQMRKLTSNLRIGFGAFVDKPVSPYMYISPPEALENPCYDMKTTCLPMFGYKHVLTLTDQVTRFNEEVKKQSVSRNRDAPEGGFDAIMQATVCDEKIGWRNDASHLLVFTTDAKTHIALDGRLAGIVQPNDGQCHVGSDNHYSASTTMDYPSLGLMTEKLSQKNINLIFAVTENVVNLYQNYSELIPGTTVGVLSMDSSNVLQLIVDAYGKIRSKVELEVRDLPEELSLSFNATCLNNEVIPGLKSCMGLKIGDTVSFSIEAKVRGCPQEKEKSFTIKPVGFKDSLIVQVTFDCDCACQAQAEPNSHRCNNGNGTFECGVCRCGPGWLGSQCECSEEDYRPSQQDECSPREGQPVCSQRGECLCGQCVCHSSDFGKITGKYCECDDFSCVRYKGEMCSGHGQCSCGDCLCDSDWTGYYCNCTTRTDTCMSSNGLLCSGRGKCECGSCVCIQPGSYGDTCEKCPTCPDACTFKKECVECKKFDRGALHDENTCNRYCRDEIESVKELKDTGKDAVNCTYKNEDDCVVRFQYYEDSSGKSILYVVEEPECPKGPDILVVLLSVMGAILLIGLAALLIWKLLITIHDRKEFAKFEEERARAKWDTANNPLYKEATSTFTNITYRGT

Molecular target: αvβ3 integrin on the surface of M21 human melanoma cells (human) (UniProt P06756+P05106)
Assay: immunofluorescence on αvβ3-positive M21 cells, detected with anti-mouse IL-12 p40 antibody and FITC secondary

B1: mrIL-12vp (murine recombinant IL-12 with the RGD-4C vascular homing peptide fused to the C-terminus of the p35 subunit, co-expressed with p40) (protein, mouse)
chain 1: RVIPVSGPARCLSQSRNLLKTTDDMVKTAREKLKHYSCTAEDIDHEDITRDQTSTLKTCLPLELHKNESCLATRETSSTTRGSCLPPQKTSLMMTLCLGSIYEDLKMYQTEFQAINAALQNHNHQQIILDKGMLVAIDELMQSLNHNGETLRQKPPVGEADPYRVKMKLCILLHAFSTRVVTINRVMGYLSSACDCRGDCFC
chain 2: MWELEKDVYVVEVDWTPDAPGETVNLTCDTPEEDDITWTSDQRHGVIGSGKTLTITVKEFLDAGQYTCHKGGETLSHSHLLLHKKENGIWSTEILKNFKNKTFLKCEAPNYSGRFTCSWLVQRNMDLKFNIKSSSSSPDSRAVTCGMASLSAEKVTLDQRDYEKYSVSCQEDVTCPTAEETLPIELALEARQQNKYENYSTSFFIRDIIKPDPPKNLQMKPLKNSQVEVSWEYPDSWSTPHSYFSLKFFVRIQRKKEKMKETEEGCNQKGAFLVEKTSTEVQCKGGNVCVQAQDRYYNSSCSKWACVPCRVRS
- binding: binds
